PubChem BioAssay AID504774 – Drosophila RNAi Screening Center – 2011
The screen tested about 23,000 reagents; shown is an unselected part of those that have a named target and a result. 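Values are quantile-normalised luminescence on an arbitrary scale; higher means more cells surviving MMS.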 Further read-outs or replicates are left out here.

Assay: 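Fly genes whose loss alters survival after alkylation damage to DNA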 (primary screen)
Cells: Drosophila Kc167 cells
Reagent: long dsRNA against Drosophila genes, about 0.25 µg dsRNA per well
Timing: about 6 days: 3 days knock-down, then 3 days with or without MMS
Conditions: methyl methanesulphonate 0.004% (w/v) for 3 days after knock-down
Measured: 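ATP-dependent luminescence as a measure of live cells in MMS-exposed wells, quantile normalised within each plate, with replicate values also given as a mean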
Scale: mean viability with MMS: higher = more surviving cells after MMS

For CG6567 (GeneID 41304) [DRSC16066], how do the results read?
mean viability with MMS: 3.51e6

For SCOT (GeneID 38261) [DRSC08186], what was measured?
mean viability with MMS: 3.55e6

With CG18563 (GeneID 35050) [DRSC02676], how do the results read?
mean viability with MMS: 3.46e6

What did the screen give for edl (GeneID 37149) [DRSC06516]?
mean viability with MMS: 3.53e6

With GlyT (GeneID 37772) [DRSC04512], how do the results read?
mean viability with MMS: 3.39e6

With CG17778 (GeneID 30996) [DRSC18504], what does the deposit list?
mean viability with MMS: 3.78e6

Which result is listed for Shc (GeneID 44052) [DRSC11284]?
mean viability with MMS: 3.47e6

For Nthl1 (GeneID 35365) [DRSC03183], what was measured?
mean viability with MMS: 3.46e6

With nSMase (GeneID 38396) [DRSC08237], what does the deposit list?
mean viability with MMS: 3.81e6

What did the screen give for dikar (GeneID 38747) [DRSC09699]?
mean viability with MMS: 3.49e6

Which result is listed for dikar (GeneID 38747) [DRSC22261]?
mean viability with MMS: 3.36e6

For CG4661 (GeneID 32238) [DRSC19910], what was measured?
mean viability with MMS: 3.55e6

With Dro (GeneID 36635) [DRSC07406], how do the results read?
mean viability with MMS: 3.64e6

For Ir94c (GeneID 318727) [DRSC13539], what was measured?
mean viability with MMS: 3.45e6

For Set2 (GeneID 32301) [DRSC19765], what does the deposit list?
mean viability with MMS: 3.18e6

With drl (GeneID 44355) [DRSC03523], how do the results read?
mean viability with MMS: 3.51e6

With tap (GeneID 39935) [DRSC11402], what does the deposit list?
mean viability with MMS: 3.53e6

For CG1806 (GeneID 32163) [DRSC19787], how do the results read?
mean viability with MMS: 3.39e6

For CG43316 (GeneID 36326) [DRSC06296], what was measured?
mean viability with MMS: 3.72e6

How did the screen score CG43316 (GeneID 36326) [DRSC06297]?
mean viability with MMS: 3.53e6

What did the screen give for CG13282 (GeneID 35019) [DRSC02254]?
mean viability with MMS: 3.50e6

With rumpel (GeneID 31674) [DRSC18436], what does the deposit list?
mean viability with MMS: 3.52e6

With CG31676 (GeneID 35351) [DRSC02387], what does the deposit list?
mean viability with MMS: 3.61e6

Which result is listed for CG13947 (GeneID 33250) [DRSC00365]?
mean viability with MMS: 3.70e6

For CG31717 (GeneID 318911) [DRSC01121], what does the deposit list?
mean viability with MMS: 3.88e6

What is on record for dpr12 (GeneID 50320) [DRSC04814]?
mean viability with MMS: 3.52e6

What is on record for dpr12 (GeneID 50320) [DRSC04863]?
mean viability with MMS: 3.53e6

What did the screen give for dpr12 (GeneID 50320) [DRSC04892]?
mean viability with MMS: 3.54e6

For CG17549 (GeneID 35212) [DRSC02625], what was measured?
mean viability with MMS: 3.58e6

For CysRS (GeneID 36784) [DRSC05948], what was measured?
mean viability with MMS: 3.70e6

How did the screen score CG17177 (GeneID 39601) [DRSC10257]?
mean viability with MMS: 3.61e6

Which result is listed for CG16972 (GeneID 34715) [DRSC02550]?
mean viability with MMS: 3.47e6

Which result is listed for CG42397 (GeneID 8673976) [DRSC09147]?
mean viability with MMS: 3.56e6

What is on record for COX6CL (GeneID 318868) [DRSC00895]?
mean viability with MMS: 3.85e6

For CR31541 (retired record) (GeneID 3772590) [DRSC21876], what does the deposit list?
mean viability with MMS: 3.72e6

How did the screen score CG13196 (GeneID 36250) [DRSC06321]?
mean viability with MMS: 3.63e6

With CG15385 (GeneID 33396) [DRSC00399], what was measured?
mean viability with MMS: 3.58e6

What did the screen give for CG32022 (GeneID 317826) [DRSC09678]?
mean viability with MMS: 3.48e6

How did the screen score kug (GeneID 40191) [DRSC10911]?
mean viability with MMS: 3.78e6

Which result is listed for Hmgs (GeneID 44154) [DRSC06866]?
mean viability with MMS: 3.71e6

What did the screen give for Nuf2 (GeneID 33992) [DRSC03123]?
mean viability with MMS: 3.36e6

What did the screen give for Indy (GeneID 40049) [DRSC10393]?
mean viability with MMS: 3.57e6

With CG18853 (GeneID 246511) [DRSC06795], how do the results read?
mean viability with MMS: 3.63e6

How did the screen score Oga (GeneID 42518) [DRSC15901]?
mean viability with MMS: 3.64e6

How did the screen score CG1690 (GeneID 36004) [DRSC06636]?
mean viability with MMS: 3.32e6

5 entries from above, set out differently:
{"gene":"CG32022 (GeneID 317826)","DRSC id":"DRSC09678","mean viability with MMS":3.48e6}
{"gene":"kug (GeneID 40191)","DRSC id":"DRSC10911","mean viability with MMS":3.78e6}
{"gene":"Hmgs (GeneID 44154)","DRSC id":"DRSC06866","mean viability with MMS":3.71e6}
{"gene":"Nuf2 (GeneID 33992)","DRSC id":"DRSC03123","mean viability with MMS":3.36e6}
{"gene":"Indy (GeneID 40049)","DRSC id":"DRSC10393","mean viability with MMS":3.57e6}
